PubChem BioAssay AID1224830 | NIAID – 2016
Shown is a random part of about 18,000 reagents tested. About 2,900 of all reagents (16%) count as active. 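Calls are made per well; low scores hint the gene aids the LPS response, high scores that it dampens it.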 Repeated entries: four replicate wells of each siRNA pool.

- Screen: 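Host factors that control LPS-induced TNF expression in human macrophages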 (primary screen)
- System: human THP-1 monocytic leukaemia cells, TNF dual-luciferase reporter clone, PMA-differentiated to macrophage-like cells
- Knock-down reagent: siRNA pool against human genes, 50 nM
- Duration: LPS for 4 h, given about 3 days after siRNA transfection
- Conditions: bacterial LPS (TLR4 ligand), 10 ng/ml
- Measured: 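TNF firefly reporter luminescence divided by renilla, normalised to the plate median, then turned into a robust z-score for each replicate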
- Scale: TNF reporter robust z-score: higher = stronger TNF reporter response to LPS
- Active means: 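a well is active when its z-score exceeds 2.8 or falls below -1.5; control wells carry no call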

{"gene symbol": "RP9 (RP9 pre-mRNA splicing factor)", "TNF reporter robust z-score": -0.79, "activity call": "inactive"}
{"gene symbol": "RP9 (RP9 pre-mRNA splicing factor)", "TNF reporter robust z-score": -0.32, "activity call": "inactive"}
{"gene symbol": "RP9 (RP9 pre-mRNA splicing factor)", "TNF reporter robust z-score": -0.08, "activity call": "inactive"}
{"gene symbol": "RP9 (RP9 pre-mRNA splicing factor)", "TNF reporter robust z-score": -0.5, "activity call": "inactive"}
{"gene symbol": "CGB5 (chorionic gonadotropin subunit beta 5)", "TNF reporter robust z-score": 1.29, "activity call": "inactive"}
{"gene symbol": "CGB5 (chorionic gonadotropin subunit beta 5)", "TNF reporter robust z-score": 0.89, "activity call": "inactive"}
{"gene symbol": "CGB5 (chorionic gonadotropin subunit beta 5)", "TNF reporter robust z-score": 0.44, "activity call": "inactive"}
{"gene symbol": "CGB5 (chorionic gonadotropin subunit beta 5)", "TNF reporter robust z-score": 0.29, "activity call": "inactive"}
{"gene symbol": "TAF1 (TATA-box binding protein associated factor 1)", "TNF reporter robust z-score": -0.94, "activity call": "inactive"}
{"gene symbol": "TAF1 (TATA-box binding protein associated factor 1)", "TNF reporter robust z-score": -1.34, "activity call": "inactive"}
{"gene symbol": "TAF1 (TATA-box binding protein associated factor 1)", "TNF reporter robust z-score": -0.86, "activity call": "inactive"}
{"gene symbol": "PLCL1 (phospholipase C like 1 (inactive))", "TNF reporter robust z-score": -0.51, "activity call": "inactive"}
{"gene symbol": "PLCL1 (phospholipase C like 1 (inactive))", "TNF reporter robust z-score": -1.13, "activity call": "inactive"}
{"gene symbol": "PLCL1 (phospholipase C like 1 (inactive))", "TNF reporter robust z-score": -0.61, "activity call": "inactive"}
{"gene symbol": "PLCL1 (phospholipase C like 1 (inactive))", "TNF reporter robust z-score": -0.44, "activity call": "inactive"}
{"gene symbol": "SUCLG1 (succinate-CoA ligase GDP/ADP-forming subunit alpha)", "TNF reporter robust z-score": -1.39, "activity call": "inactive"}
{"gene symbol": "SUCLG1 (succinate-CoA ligase GDP/ADP-forming subunit alpha)", "TNF reporter robust z-score": 0.48, "activity call": "inactive"}
{"gene symbol": "SUCLG1 (succinate-CoA ligase GDP/ADP-forming subunit alpha)", "TNF reporter robust z-score": 1.11, "activity call": "inactive"}
{"gene symbol": "SUCLG1 (succinate-CoA ligase GDP/ADP-forming subunit alpha)", "TNF reporter robust z-score": 0.82, "activity call": "inactive"}

Targets listed so far whose gene name begins with S or s (4):
{"gene symbol": "SUCLG1 (succinate-CoA ligase GDP/ADP-forming subunit alpha)", "TNF reporter robust z-score": -1.39, "activity call": "inactive"}
{"gene symbol": "SUCLG1 (succinate-CoA ligase GDP/ADP-forming subunit alpha)", "TNF reporter robust z-score": 0.48, "activity call": "inactive"}
{"gene symbol": "SUCLG1 (succinate-CoA ligase GDP/ADP-forming subunit alpha)", "TNF reporter robust z-score": 1.11, "activity call": "inactive"}
{"gene symbol": "SUCLG1 (succinate-CoA ligase GDP/ADP-forming subunit alpha)", "TNF reporter robust z-score": 0.82, "activity call": "inactive"}
